Results taken from PubChem BioAssay AID463183 (Sanford-Burnham Center for Chemical Genomics, 2010).
The list shows a part of the results. Shown are side measurements of this screen, not its main read-out; they come without a call. The list favours compounds with an active or inconclusive main result.

Test: blockers of oleate-driven lipid droplets in liver cells – imaging, AML12 mouse hepatocytes, single concentration, high-content, confirmation (AID 463183);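 note: cells counted after overnight compound exposure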
Settings: BODIPY lipid droplet imaging, measured here: cell count, cytotoxicity, at 5.2 µM, droplets induced with 100 µM oleic acid

Compound | cell count [cells]
Cc1nc(NC(=O)c2ccc(OCC(C)C)cc2)sc1Cc1ccc2c(c1)OCO2 | 1600
COc1cc2c(cc1OC)CN(CC(=O)Nc1ccc(C)c(C)c1)CC2 | 1600
Cc1cc(C)n2nc(C(=O)N/N=C/c3c4ccccc4cc4ccccc34)nc2n1 | 1550
CC(C)CCNC(=O)c1ccc2c(c1)N(C)C(=O)c1ccccc1S2 | 1530
COc1ccc(C(=O)CCC(=O)NCCc2c[nH]c3ccccc23)cc1OC | 1540
COc1c([N+](=O)[O-])cc(C(=O)NNC(=O)c2ccc(C)cc2)cc1[N+](=O)[O-] | 1560
CCOc1ccccc1Nc1nnc(SC(C)C(=O)Nc2nc(-c3ccccc3)cs2)s1 (centres undefined) | 1560
O=C(CSc1nc(O)cc(=O)[nH]1)N1c2ccccc2Sc2ccccc21 | 1540
CCOc1cc2c(cc1OCC)C(c1ccccc1)N(c1ccccc1)C(=O)C2 (centres undefined) | 1650
FC(F)(F)COc1nc(N2CCOCC2)nc(N(c2ccccc2)c2ccccc2)n1 | 1560
CCOc1cc([C@@H]2C[C@H]3CN(c4ccccc4)C(=O)[C@]34CCCN24)ccc1OC | 1590
O=C(CCNC(=O)C1CCN(S(=O)(=O)c2ccc(F)cc2)CC1)NCc1ccccc1Cl | 1630
COc1ccc(N(C(=O)CCl)C(C(=O)NCCc2ccccc2)c2cccs2)cc1Cl (centres undefined) | 20.2
COc1ccc(NC(=S)NC(=O)c2ccccc2Cl)cc1 | 1660
O=C(Nc1cccc(Br)c1)c1cccc(OC(=S)N2CCOCC2)c1 | 1680
COc1cccc(-c2nc(NCc3ccccc3)c3ccccc3n2)c1O | 1620
CCOc1ccc(CCNC(=O)c2cc3sccc3n2CC)cc1OCC | 1600
CC(=O)Nc1cccc(OCC(=O)NC(C)c2ccc3ccccc3c2)c1 (centres undefined) | 1550
COc1ccc(CCN2C(=O)CC(N3CCOCC3)C2=O)cc1OC (centres undefined) | 1610
O=C(Cc1cccc2ccccc12)Nc1ccc(-c2cc3ccccc3oc2=O)cc1 | 1600

Compound | cell count [cells]
Cc1cccc(Nc2nc(N)c([N+](=O)[O-])c(N3CCCC(C)C3)n2)c1 (centres undefined) | 1700
Cn1c(=O)c(C(=O)COC(=O)c2cc(C3CC3)nc3ccccc23)c(N)n(Cc2ccccc2)c1=O | 1670
CC(C)(C)C(=O)/C=c1\[nH]c(=O)/c(=C\c2ccc(F)cc2)s1 | 1610
CC1Cc2cc(S(=O)(=O)NCCC(=O)N(C)Cc3ccccc3)ccc2N1C(=O)C1CC1 (centres undefined) | 1560
COc1ccc(C(C)=O)cc1CSc1nnc(Nc2ccc(C)cc2C)s1 | 1580
CCC(C)C(NC(=O)c1ccccc1NC(=O)c1ccc(OC)cc1)C(=O)NCc1ccco1 (centres undefined) | 1560
CSc1ccc(CN2CCN(C3CCCC3)C(CCO)C2)cc1 (centres undefined) | 1560
Cc1cccc(N(Cc2cc(=O)[nH]c3ccccc23)C(=O)CCl)c1 | 1580
Cc1ccc(NC(=O)CN(C)CC(=O)Nc2ccc(N3CCOCC3)cc2)c(C)c1 | 1570
COc1ccc(N=Nc2nc(-c3ccccc3)c(-c3ccccc3)[nH]2)cc1 | 1730
COc1ccc(NC(=O)CCC(=O)Nc2cc(OC)c(NC(=O)c3cccs3)cc2OC)cc1 | 1690
COc1ccc(CCNC(=O)C2CC3Cn4c(nc5cc6ccccc6cc54)C3N2C)cc1 (centres undefined) | 1570
CCCSC1=C(C#N)C(c2cccs2)C(C(=O)Nc2ccccc2)=C(C)N1 (centres undefined) | 1550
Cc1cc(NC(=O)c2cccc3ccccc23)cc(C)c1OCC(=O)N1CCOCC1 | 1580
CCOC(=O)c1sc2cc([N+](=O)[O-])cc(SCCO)c2c1N | 1710
O=C(CCNC(=O)C1CCN(S(=O)(=O)c2ccccc2)CC1)NCCc1cccc(F)c1 | 1640
Cc1cc2c(cc1S(=O)(=O)Nc1c(C)cccc1C)n(C)c(=O)c(=O)n2C | 1600
CC1CCCN(C(=O)c2ccc3c(c2NCCO)C(=O)c2ccccc2C3=O)C1 (centres undefined) | 1680
COc1ccc(C)cc1NC(=O)C/C(C)=N/NC(=O)Cc1cccc2ccccc12 | 1710

Ordered by number of heavy atoms (high to low): part of the list above.
Compound | cell count [cells]
Cc1ccc(NC(=O)CN(C)CC(=O)Nc2ccc(N3CCOCC3)cc2)c(C)c1 | 1570
CC1CCCN(C(=O)c2ccc3c(c2NCCO)C(=O)c2ccccc2C3=O)C1 (centres undefined) | 1680
CSc1ccc(CN2CCN(C3CCCC3)C(CCO)C2)cc1 (centres undefined) | 1560
